# Results published in patent publication US20250222044A1, “LIMOSILACTOBACILLUS REUTERI GOLDGUT-LR99 AND APPLICATION THEREOF” (priority 2024, published 2025).
# At least one compound was matched to its structure with a doubt left.
# Test system: Limosilactobacillus reuteri GOLDGUT-LR99
# Experiment: Antibiotic sensitivity, K-B method (Kirby-Bauer method)
# Assay type: cell-based
# Conditions: susceptibility of the strain to the antibiotic
# Procedure: Antibiotic sensitivity of Limosilactobacillus reuteri GOLDGUT-LR99 was determined using the K-B method (Kirby-Bauer method).
structure (smiles),measurement,value
CN(C)[C@@H]1C(O)=C(C(N)=O)C(=O)[C@@]2(O)C(O)=C3C(=O)c4c(O)cccc4[C@@](C)(O)[C@H]3C[C@@H]12 [Tetracycline],antibiotic sensitivity (in words),sensitive
